The campaign covered roughly 330,000 compounds. About 7,700 (2.3%) were called active. Inconclusive results, whose numbers are uncertain, are shown with a selection of clear calls. Calls come from the whole dose curve; as a rule, active = well fitted inhibition curve with a large enough effect; inconclusive = small, poorly fitted or top-dose-only effect, or effect the other way; inactive = flat fitted curve, though single readings scatter. Potencies of inconclusive entries are doubtful fits and often do not repeat.
Test: qHTS screen for small molecules that inhibit ELG1-dependent DNA repair in human embryonic kidney (HEK293T) cells expressing luciferase-tagged ELG1; note: nearly all actives have a fitted effect of over 55% in size
Conditions: HEK293T ELG1-luciferase reporter, luminescence, 16 h, DNA damage induced by 5-fluorouridine; activity change, negative = inhibition: at 46.1 µM (top of the series)
Procedure, shortened: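 Luminescence from the luciferase reporter, measured 30 min after ONE-Glo reagent at room temperature, was the read-out. Beforehand, 2,000 cells per well were exposed for 16 hr at 37 °C to 5-fluorouridine together with compound or vehicle.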
% is set by controls: 0 for no effect and ±100 for the full control effect; potency is the fitted concentration of half-maximal effect.

| Structure (SMILES) | Potency | activity change, negative = inhibition |
| --- | --- | --- |
| O=C(CSC(=S)N1CCOCC1)c1ccccc1 | inconclusive: 0.651 µM [activator, full curve] |  |
| O=C(CC12CC3CC(CC(C3)C1)C2)NCC(=O)OCc1cc(=O)oc2ccc3ccccc3c12 |  | inactive: 1.2% |
| COc1ccc(OCCCC(=O)N(C)CC(=O)Nc2c(C)cccc2C)cc1 |  | inactive: 0.658% |
| COc1ccc([C@@H]2CC=C(C(=O)O)[C@H](c3ccc(C)cc3)N2S(=O)(=O)c2ccc(C)cc2)cc1OC |  | inactive: 2.04% |
| Cc1cccc(-c2nc(CS(=O)CC(=O)NC3CCCCC3)c(C)o2)c1 (configuration not stated) |  | inactive: -2.38% |
| Cc1ccc(C(=O)CSc2nccn2-c2ccccc2)cc1 | inconclusive: 18.4 µM [activator, partial curve] |  |
| COc1cc(C)c(NC(=O)COc2cccc3c2OC(C)(C)C3)cc1OC | active: 18.3 µM |  |
| COc1cccc(C2Oc3ccccc3C3CC(c4cccs4)=NN32)c1 (configuration not stated) | inconclusive: 29.1 µM [activator, single point] |  |
| N#CC(c1nc2ccccc2nc1N1CCCC1)S(=O)(=O)c1ccccc1 (configuration not stated) | inconclusive: 3.66 µM [inhibitor, partial curve, poor fit] |  |
| COc1ccc(-c2nc3cc(NC(=O)c4ccc5c(c4)OCO5)ccc3o2)cc1 | inconclusive: 16.4 µM [activator, partial curve] |  |
| Cc1cc(C(=O)COC(=O)c2ccc(NC(=O)CC#N)cc2)c(C)n1-c1ccc(OC(F)F)cc1 | inconclusive: 18.3 µM [inhibitor, partial curve, poor fit] |  |
| CCOC(=O)c1ccc(-c2ccc(/C=N/NC(=O)Cc3nnc(N)s3)o2)cc1 | inconclusive: 6.51 µM [activator, partial curve] |  |
| CCOc1ccc(OCCCC(=O)O)cc1 | inconclusive: 23.1 µM [activator, partial curve] |  |
| CCNc1nc(N)nc(Oc2ccc(OCCOc3ccccc3)nn2)n1 | inconclusive: 4.61 µM [activator, single point] |  |
| C=CCNC(=O)/C(C#N)=C/c1c(N2CCCCCC2)nc2ccccn2c1=O | inconclusive: 29.1 µM [inhibitor, partial curve, poor fit] |  |
| O=C(NNC(=S)NCc1ccccc1)c1ccc(Br)cc1 |  | inactive: 0.62% |
| COc1ccc(OCC(=O)NCCCN2CCOCC2)cc1 | inconclusive: 23.1 µM [activator, partial curve, poor fit] |  |
| S=C(Nc1ccc2c(c1)OCO2)N1CCN(Cc2ccco2)CC1 | inconclusive: 14.6 µM [activator, partial curve] |  |
| Cc1ccc(-c2nc(-c3ccncc3)no2)cc1C | inconclusive: 6.31 µM [activator, partial curve, poor fit] |  |
| Cc1ccc(-c2cc(C(=O)NCCc3ccccn3)c3ccccc3n2)c(C)c1 | inconclusive: 25.9 µM [inhibitor, single point] |  |
| Cc1ccc(S(=O)(=O)N2CCCC2)cc1C(=O)O | inconclusive: 25.9 µM [activator, partial curve, poor fit] |  |
| CC1=CC(C)(C)Nc2ccc(OC(=O)C(Cc3ccccc3)N3C(=O)c4ccccc4C3=O)cc21 (configuration not stated) |  | inactive: 7.54% |
| CC(=O)c1cnc(N2CCCCC2)nc1C | inconclusive: 32.6 µM [activator, single point] |  |

| Structure (SMILES) | Potency | activity change, negative = inhibition |
| --- | --- | --- |
| COc1ccc(CCNc2oc(-c3ccc(OC)c(OC)c3)nc2C#N)cc1 | inconclusive: 20.6 µM [inhibitor, single point] |  |
| Cc1cc(C(=O)N/N=C/c2cc(N=Nc3ccccc3)ccc2O)n[nH]1 | inconclusive: 6.51 µM [inhibitor, single point] |  |
| CCN(CC)c1ccc(CNc2nc3ccccc3n2C)cc1 |  | inactive: -10.7% |
| CCc1ccc2[nH]c(=O)c(CN(CCCN3CCOCC3)C(=O)Nc3ccc(F)cc3)cc2c1 | inconclusive: 23.1 µM [inhibitor, single point] |  |
| Cc1ccc2nc(NC(=O)c3ccccn3)sc2c1 | inconclusive: 0.231 µM [activator, partial curve] |  |
| CCCOC(=O)/C(=C\C=C\c1ccccc1)NC(=O)c1ccccc1 | inconclusive: 29.1 µM [inhibitor, partial curve, poor fit] |  |
| Cc1nc2ccc(S(=O)(=O)NCC(=O)N3CCc4ccccc43)cc2s1 | inconclusive: 0.0058 µM [activator, full curve, poor fit] |  |
| Cc1cccn2cc(-c3ccc(S(=O)(=O)N4CCCCC4)cc3)nc12 |  | inactive: 8.28% |
| O=C(NCCc1ccccc1)c1nc(-c2cccs2)no1 | inconclusive: 25.9 µM [activator, single point] |  |
| COc1ccccc1/C=C/C=N/NC(=O)c1cnccn1 | inconclusive: 18.3 µM [activator, partial curve] |  |
| CCOC(=O)c1c(NC(=O)CSc2nnnn2-c2ccccc2)sc2c1CC(C)(C)NC2(C)C | inconclusive: 16.4 µM [inhibitor, partial curve, poor fit] |  |
| O=C(NCCCN1CCN(c2ccc(F)cc2)CC1)C1CCCN(c2ncnc3c2nc2n3CCCCC2)C1 (configuration not stated) | inconclusive: 18.3 µM [inhibitor, partial curve] |  |
| COC(=O)c1[nH]c2cccc(OC)c2c1NC(=O)CCN1CCSCC1 |  | inactive: -1.33% |
| Cc1nc2cc(N3CCCCC3)c(NC(=O)c3cccnc3)cc2c(=O)n1Cc1ccccc1 | inconclusive: 20.6 µM [inhibitor, single point] |  |
| CC(C)(C)NS(=O)(=O)c1ccc2[nH]c3c(c2c1)CCCCC3 | inconclusive: 18.3 µM [inhibitor, partial curve, poor fit] |  |
| CCOC(=O)c1cnc2ccc(C(=O)OC)cc2c1Nc1ccc2c(c1)OCCO2 | inconclusive: 25.1 µM [inhibitor, single point] |  |
| Cc1nc2c(ccc3nc(NC(=O)Cc4ccccc4)sc32)s1 | inconclusive: 16.4 µM [inhibitor, partial curve, poor fit] |  |
| COc1cc(-c2nnc(CSc3nnc(Nc4ccc(C(C)C)cc4)s3)o2)cc(OC)c1OC | active: 6.51 µM |  |
| Cc1c(C)c2cc(Cl)c(OCC(=O)NC3CC(C)(C)NC(C)(C)C3)cc2oc1=O | inconclusive: 23.1 µM [activator, partial curve] |  |
| Cc1ccc(/C=N/N(C)S(=O)(=O)c2ccc(C)cc2)cc1 |  | inactive: 5.97% |
| Cc1cc(/C=C(\C#N)C(=O)NC2CC2)c(C)[nH]1 | inconclusive: 9.2 µM [activator, partial curve] |  |
| N#CC1=C(N)Oc2ccccc2C12C(=O)Nc1n[nH]c(-c3ccccc3)c12 (configuration not stated) |  | inactive: 0.908% |
| Cc1nn(CC(=O)Nc2nccs2)c(C)c1[N+](=O)[O-] | inconclusive: 29.1 µM [activator, partial curve, poor fit] |  |

| Structure (SMILES) | Potency | activity change, negative = inhibition |
| --- | --- | --- |
| Cc1ncc([N+](=O)[O-])n1CC(=O)Nc1ccc(Br)cc1 |  | inactive: 19.5% |
| C[C@@]12C(=O)N(Cc3ccccc3)CC(=O)N1[C@H]1c3ccccc3OC[C@@H]1[C@@H]2c1ccccc1 | inconclusive: 25.9 µM [inhibitor, partial curve, poor fit] |  |
| CC(C)(C)C(=O)CSc1ncnc2c1cnn2Cc1ccccc1 | inconclusive: 18.3 µM [inhibitor, single point] |  |
| COc1ccc(Cl)cc1NC(=O)CN(C)CC(=O)Nc1ccc(C)cc1Br | inconclusive: 20.6 µM [inhibitor, single point] |  |
| CC(C)C[C@H](NC(=O)C1CC(=O)N(c2ccc3c(c2)OCO3)C1)C(=O)NCc1ccco1 (some centres not stated) |  | inactive: 2.91% |
| N/C(=N\OC(=O)CCC1CCCC1)c1ccc(Cl)cc1 | inconclusive: 11.6 µM [activator, single point] |  |
| CCOc1cc(C(=O)O/N=C(\N)c2ccccn2)cc(OCC)c1OCC | inconclusive: 18.3 µM [inhibitor, single point] |  |
| C=CCN(c1ccccc1OC)S(=O)(=O)c1cccc(C(=O)Nc2nnc(C3CC3)s2)c1 |  | inactive: -28.1% |
| COC(=O)c1ccc(CN(c2ccc(C(=O)O)c(O)c2)S(=O)(=O)c2ccc(Cl)c([N+](=O)[O-])c2)cc1 |  | inactive: -2.99% |
| Cc1ccc(C)c(OCc2nnc(NC(=O)c3ccco3)s2)c1 | inconclusive: 18.4 µM [activator, single point] |  |
| CC(=O)N1CCc2cc(S(=O)(=O)C(C)CC(=O)Nc3ccc(OC(F)(F)F)cc3)ccc21 (configuration not stated) |  | inactive: -2.91% |
| Cc1ccnc(NC(=O)c2cccc(S(=O)(=O)Nc3ccc(C)cc3C)c2)c1 | inconclusive: 20.6 µM [inhibitor, partial curve] |  |
| O=C(NCc1ccccc1)c1ccc(CN2CCC(Cc3ccccc3)CC2)cc1 |  | inactive: -6.87% |
| COCCNC(=O)c1noc2c1CCc1cc(OC)ccc1-2 | inconclusive: 18.4 µM [activator, partial curve] |  |
| CN(C)c1nccc(Nc2ccccc2)c1C#N |  | inactive: 10.7% |
| Cc1nc2sc(-c3ccccc3)nn2c(=O)c1Br | inconclusive: 4.61 µM [activator, partial curve] |  |
| O=C(Cc1c(F)cccc1Cl)NNC(=O)Nc1ccc2c(c1)OCO2 | inconclusive: 20.6 µM [activator, partial curve, poor fit] |  |
| CC(c1ccccc1)N1CCn2c(nc3cc(NS(C)(=O)=O)ccc32)C1 (configuration not stated) | inconclusive: 16.4 µM [inhibitor, partial curve] |  |
| O=C(NCCOc1ccccc1)C1CCCCC1 | inconclusive: 18.3 µM [activator, partial curve] |  |
| Brc1cc(Br)c2nc(-c3cccs3)ccc2c1 | inconclusive: 20.6 µM [activator, partial curve] |  |
| CCNc1nnc(-c2ccccc2OC)s1 | inconclusive: 18.4 µM [activator, single point] |  |

5 records picked at random from those above:

| Structure (SMILES) | Potency | activity change, negative = inhibition |
| --- | --- | --- |
| Cc1nc2sc(-c3ccccc3)nn2c(=O)c1Br | inconclusive: 4.61 µM [activator, partial curve] |  |
| Cc1ncc([N+](=O)[O-])n1CC(=O)Nc1ccc(Br)cc1 |  | inactive: 19.5% |
| CC(C)(C)C(=O)CSc1ncnc2c1cnn2Cc1ccccc1 | inconclusive: 18.3 µM [inhibitor, single point] |  |
| CCNc1nnc(-c2ccccc2OC)s1 | inconclusive: 18.4 µM [activator, single point] |  |
| CN(C)c1nccc(Nc2ccccc2)c1C#N |  | inactive: 10.7% |
